Measured values as given in patent US20200206344.
Results from cells or extracts need not show a direct contact. For some of these results: No signal at the amounts used counts as a negative. For some of these results: Tags and fusion partners may be left off the protein sequences shown. For some of these results: For at least one entry, the source does not settle the construct or the ends of the probe. For some of these results: The comparison behind a weaker result is the experiment's own reference, which may not be listed here.

By UniProt entry, the sequences of proteins in these tests, tags left out. Where a name states a change or a piece, a line headed by the entry shows the natural chain unless it says otherwise.
UniProt Q12824: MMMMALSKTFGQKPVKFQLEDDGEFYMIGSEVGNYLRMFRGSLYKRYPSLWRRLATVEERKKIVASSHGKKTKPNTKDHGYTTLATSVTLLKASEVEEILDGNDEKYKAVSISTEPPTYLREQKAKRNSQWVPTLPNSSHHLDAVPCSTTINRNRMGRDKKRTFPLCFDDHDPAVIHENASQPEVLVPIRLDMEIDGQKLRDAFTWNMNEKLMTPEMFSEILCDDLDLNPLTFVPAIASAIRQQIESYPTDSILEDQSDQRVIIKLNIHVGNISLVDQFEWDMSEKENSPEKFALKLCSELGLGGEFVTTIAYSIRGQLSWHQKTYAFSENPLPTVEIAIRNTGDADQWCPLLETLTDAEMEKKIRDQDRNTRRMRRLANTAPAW

Experiments:
[1] = target: T1, SYGQ2-FLI1 (Homo sapiens) (UniProt Q01543); experiment: binding assay; details: ChIP-seq in MSC; protein in cells
T1 sequence: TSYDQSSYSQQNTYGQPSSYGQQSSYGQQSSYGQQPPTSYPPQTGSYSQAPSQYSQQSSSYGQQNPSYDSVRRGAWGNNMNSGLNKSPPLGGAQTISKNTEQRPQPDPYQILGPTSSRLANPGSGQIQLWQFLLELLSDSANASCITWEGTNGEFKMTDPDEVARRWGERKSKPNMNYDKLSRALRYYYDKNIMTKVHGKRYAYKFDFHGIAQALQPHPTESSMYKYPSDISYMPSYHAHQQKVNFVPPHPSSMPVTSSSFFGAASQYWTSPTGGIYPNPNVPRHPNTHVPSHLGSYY

[2] = target: T2, FLI1 wild-type (Homo sapiens) (UniProt Q01543); experiment: binding assay; details: ChIP-seq in MSC; no significant binding at GGAA repeats; protein in cells; protein details: lentiviral expression in MSC
T2 sequence (looked up, limits assumed): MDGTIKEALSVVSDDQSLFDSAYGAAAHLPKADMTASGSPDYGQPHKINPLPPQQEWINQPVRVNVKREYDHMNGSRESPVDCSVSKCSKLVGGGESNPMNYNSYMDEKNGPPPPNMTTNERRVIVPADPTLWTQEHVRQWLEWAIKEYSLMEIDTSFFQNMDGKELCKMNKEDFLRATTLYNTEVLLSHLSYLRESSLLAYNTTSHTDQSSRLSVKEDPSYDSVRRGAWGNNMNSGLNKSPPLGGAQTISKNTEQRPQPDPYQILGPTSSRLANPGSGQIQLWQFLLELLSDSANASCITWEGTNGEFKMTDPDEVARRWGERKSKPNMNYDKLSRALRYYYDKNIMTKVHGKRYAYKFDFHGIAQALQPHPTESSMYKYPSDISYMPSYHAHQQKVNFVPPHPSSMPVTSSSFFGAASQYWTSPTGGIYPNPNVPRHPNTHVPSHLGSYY

[3] = target: BAF47-FLI1 fusion (Homo sapiens) (UniProt Q12824); experiment: binding assay; details: ChIP in MSC; no significant binding at GGAA repeats; protein in cells
[4] = tested on: T3, EWS(YS37)-FLI1 (Homo sapiens); experiment: binding assay; details: ChIP-seq in MSC; dramatic reduction versus EWS-FLI1; p553 states not able to bind GGAA repeats; protein in cells; protein details: V5
T3 sequence: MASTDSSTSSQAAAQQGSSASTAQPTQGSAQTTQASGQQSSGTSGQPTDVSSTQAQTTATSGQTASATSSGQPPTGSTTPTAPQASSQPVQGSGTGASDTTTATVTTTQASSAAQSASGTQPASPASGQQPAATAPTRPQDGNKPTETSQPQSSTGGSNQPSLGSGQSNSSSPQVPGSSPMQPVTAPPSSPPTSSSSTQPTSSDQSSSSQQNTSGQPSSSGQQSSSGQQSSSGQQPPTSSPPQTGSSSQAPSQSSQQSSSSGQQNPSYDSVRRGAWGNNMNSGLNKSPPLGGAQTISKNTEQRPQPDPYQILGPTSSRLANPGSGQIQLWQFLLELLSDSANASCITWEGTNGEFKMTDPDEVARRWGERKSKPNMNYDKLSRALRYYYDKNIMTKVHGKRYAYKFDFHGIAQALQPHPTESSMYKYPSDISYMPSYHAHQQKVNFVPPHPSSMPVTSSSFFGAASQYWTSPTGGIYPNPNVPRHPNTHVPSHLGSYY

[5] = tested on: T4, EWS-FLI1 fusion type 1 (Homo sapiens); experiment: binding assay; details: ChIP-seq/ChIP-qPCR in SK-N-MC and MSC; GGAA repeat top-ranked motif; protein in cells; protein details: V5-tagged in MSC constructs, endogenous in SK-N-MC
T4 sequence: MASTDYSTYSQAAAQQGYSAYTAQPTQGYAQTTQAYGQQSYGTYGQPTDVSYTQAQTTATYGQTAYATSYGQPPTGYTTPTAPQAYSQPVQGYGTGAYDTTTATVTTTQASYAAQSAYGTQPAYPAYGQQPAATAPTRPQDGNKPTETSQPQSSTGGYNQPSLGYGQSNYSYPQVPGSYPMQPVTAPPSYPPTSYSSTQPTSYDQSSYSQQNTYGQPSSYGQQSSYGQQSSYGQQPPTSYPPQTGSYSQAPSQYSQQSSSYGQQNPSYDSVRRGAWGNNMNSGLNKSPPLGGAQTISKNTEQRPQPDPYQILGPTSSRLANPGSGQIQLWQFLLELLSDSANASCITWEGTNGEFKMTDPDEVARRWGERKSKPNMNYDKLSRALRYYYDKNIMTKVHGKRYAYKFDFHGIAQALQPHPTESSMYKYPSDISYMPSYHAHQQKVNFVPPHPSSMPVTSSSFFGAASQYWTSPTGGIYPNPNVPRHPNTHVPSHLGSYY

[6] = target: T2, FLI1 wild-type (Homo sapiens); experiment: EMSA; details: CITED Gangwal 2008; in vitro binding to GGAA repeats; protein in cells; protein details: lentiviral expression in MSC
[7] = tested on: T4, EWS-FLI1 fusion type 1 (Homo sapiens); experiment: EMSA; details: CITED Gangwal 2008; in vitro binding to GGAA repeats; protein in cells; protein details: V5-tagged in MSC constructs, endogenous in SK-N-MC

AAGGAAGGAAGGAAGG (double strand) [GGAA microsatellite repeat enhancers]
binding result [1]: binds | binding result [2]: no binding | binding result [3]: no binding | binding result [4]: binds more weakly | binding result [5]: binds | binding result [6]: binds | binding result [7]: binds
